Reference: paper PMC9830830
Results are given in words; binding and its absence hold for the method and conditions named. In cells and extracts the contact can be indirect. Some entries that bind do so weakly or less than the wild type.

T1: CKLF-like MARVEL transmembrane domain-containing 6 (CMTM6) (human (endogenous in JIMT-1)) (UniProt Q9NX76)
T1 sequence: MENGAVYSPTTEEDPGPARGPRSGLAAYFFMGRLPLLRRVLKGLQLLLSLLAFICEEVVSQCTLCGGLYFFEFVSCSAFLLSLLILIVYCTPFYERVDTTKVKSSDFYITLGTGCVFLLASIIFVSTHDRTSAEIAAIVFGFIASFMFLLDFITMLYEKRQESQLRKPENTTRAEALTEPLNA


What was measured:
[1] = target: T1, CKLF-like MARVEL transmembrane domain-containing 6 (CMTM6) (human (endogenous in JIMT-1)); experiment: co-IP; JIMT-1 cells lysed in RIPA buffer with protease/phosphatase inhibitor; lysate incubated at 4 °C for 4 h with anti-CMTM6, anti-HER2 or control IgG, then with beads at 4 °C overnight; washed with ice-cold PBS; Western blot with anti-HER2 or anti-CMTM6
[2] = target: Human epidermal growth factor receptor 2 (HER2) (human (endogenous in JIMT-1)) (UniProt P04626); experiment: as above

binding [1]	binding [2]	Molecule
binds	–	Human epidermal growth factor receptor 2 (HER2) (from UniProt P04626 23-1255)
–	binds	CKLF-like MARVEL transmembrane domain-containing 6 (CMTM6) (protein, UniProt Q9NX76 1-183) MENGAVYSPTTEEDPGPARGPRSGLAAYFFMGRLPLLRRVLKGLQLLLSLLAFICEEVVSQCTLCGGLYFFEFVSCSAFLLSLLILIVYCTPFYERVDTTKVKSSDFYITLGTGCVFLLASIIFVSTHDRTSAEIAAIVFGFIASFMFLLDFITMLYEKRQESQLRKPENTTRAEALTEPLNA
